The values that follow come from the supplement of paper PMC6411743.

Chains of the proteins cited; added tags and fusions are not shown. Lines headed by an entry give the natural chain unless they say otherwise; changes in a name come on top.
UniProt Q9NP66: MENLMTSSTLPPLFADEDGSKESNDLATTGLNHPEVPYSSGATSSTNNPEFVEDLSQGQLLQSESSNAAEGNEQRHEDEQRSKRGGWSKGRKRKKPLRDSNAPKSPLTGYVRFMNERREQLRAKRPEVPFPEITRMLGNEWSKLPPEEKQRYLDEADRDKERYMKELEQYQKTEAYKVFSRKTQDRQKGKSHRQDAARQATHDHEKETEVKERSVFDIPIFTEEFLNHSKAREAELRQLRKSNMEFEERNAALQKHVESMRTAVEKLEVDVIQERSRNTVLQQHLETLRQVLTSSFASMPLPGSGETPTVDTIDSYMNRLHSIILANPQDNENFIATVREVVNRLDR
UniProt Q9H1U4: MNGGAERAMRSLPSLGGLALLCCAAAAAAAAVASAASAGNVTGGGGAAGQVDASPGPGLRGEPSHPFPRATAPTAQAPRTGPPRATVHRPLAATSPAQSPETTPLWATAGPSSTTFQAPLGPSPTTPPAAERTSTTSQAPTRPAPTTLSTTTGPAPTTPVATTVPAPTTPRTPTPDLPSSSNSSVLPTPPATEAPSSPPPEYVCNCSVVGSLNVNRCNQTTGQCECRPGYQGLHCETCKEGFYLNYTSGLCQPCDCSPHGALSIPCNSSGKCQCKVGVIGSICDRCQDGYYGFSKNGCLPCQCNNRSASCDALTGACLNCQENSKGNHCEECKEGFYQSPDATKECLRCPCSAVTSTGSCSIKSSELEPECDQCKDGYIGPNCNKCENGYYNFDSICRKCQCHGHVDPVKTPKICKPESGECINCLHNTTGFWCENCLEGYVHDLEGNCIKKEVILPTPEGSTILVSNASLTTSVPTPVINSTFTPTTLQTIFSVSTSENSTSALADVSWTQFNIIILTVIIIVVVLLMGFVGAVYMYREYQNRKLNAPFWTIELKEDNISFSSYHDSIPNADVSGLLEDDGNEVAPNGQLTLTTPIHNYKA
UniProt Q9NP72: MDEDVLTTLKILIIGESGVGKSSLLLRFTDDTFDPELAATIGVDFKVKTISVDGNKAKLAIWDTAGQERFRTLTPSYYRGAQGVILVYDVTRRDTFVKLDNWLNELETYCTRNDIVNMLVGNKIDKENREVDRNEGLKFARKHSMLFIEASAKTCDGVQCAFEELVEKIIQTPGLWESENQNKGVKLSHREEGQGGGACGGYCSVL
UniProt Q9GZZ9, whole entry: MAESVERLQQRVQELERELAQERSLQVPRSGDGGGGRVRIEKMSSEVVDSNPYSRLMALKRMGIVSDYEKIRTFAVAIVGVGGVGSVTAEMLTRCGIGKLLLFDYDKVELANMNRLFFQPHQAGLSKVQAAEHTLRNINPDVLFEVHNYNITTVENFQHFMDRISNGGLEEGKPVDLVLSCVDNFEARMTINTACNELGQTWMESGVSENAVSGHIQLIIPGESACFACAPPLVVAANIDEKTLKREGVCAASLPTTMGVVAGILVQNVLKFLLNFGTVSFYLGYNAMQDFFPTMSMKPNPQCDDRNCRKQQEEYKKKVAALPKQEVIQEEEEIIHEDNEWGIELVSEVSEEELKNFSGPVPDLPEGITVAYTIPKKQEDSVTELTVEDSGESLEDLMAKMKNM
UniProt Q9NPJ3: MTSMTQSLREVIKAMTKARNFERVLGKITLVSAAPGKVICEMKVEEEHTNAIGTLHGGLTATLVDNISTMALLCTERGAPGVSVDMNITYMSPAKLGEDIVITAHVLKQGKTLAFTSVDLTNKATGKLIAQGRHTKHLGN
UniProt Q9H2K0, whole entry, looked up: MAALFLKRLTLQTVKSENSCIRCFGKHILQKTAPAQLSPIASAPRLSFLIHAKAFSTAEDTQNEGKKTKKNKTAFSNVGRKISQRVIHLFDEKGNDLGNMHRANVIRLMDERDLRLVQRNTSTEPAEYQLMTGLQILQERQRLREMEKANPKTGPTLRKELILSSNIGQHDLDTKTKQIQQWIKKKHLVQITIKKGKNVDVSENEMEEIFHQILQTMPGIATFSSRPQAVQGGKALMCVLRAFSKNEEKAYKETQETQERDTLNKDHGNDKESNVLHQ
UniProt Q9HA65: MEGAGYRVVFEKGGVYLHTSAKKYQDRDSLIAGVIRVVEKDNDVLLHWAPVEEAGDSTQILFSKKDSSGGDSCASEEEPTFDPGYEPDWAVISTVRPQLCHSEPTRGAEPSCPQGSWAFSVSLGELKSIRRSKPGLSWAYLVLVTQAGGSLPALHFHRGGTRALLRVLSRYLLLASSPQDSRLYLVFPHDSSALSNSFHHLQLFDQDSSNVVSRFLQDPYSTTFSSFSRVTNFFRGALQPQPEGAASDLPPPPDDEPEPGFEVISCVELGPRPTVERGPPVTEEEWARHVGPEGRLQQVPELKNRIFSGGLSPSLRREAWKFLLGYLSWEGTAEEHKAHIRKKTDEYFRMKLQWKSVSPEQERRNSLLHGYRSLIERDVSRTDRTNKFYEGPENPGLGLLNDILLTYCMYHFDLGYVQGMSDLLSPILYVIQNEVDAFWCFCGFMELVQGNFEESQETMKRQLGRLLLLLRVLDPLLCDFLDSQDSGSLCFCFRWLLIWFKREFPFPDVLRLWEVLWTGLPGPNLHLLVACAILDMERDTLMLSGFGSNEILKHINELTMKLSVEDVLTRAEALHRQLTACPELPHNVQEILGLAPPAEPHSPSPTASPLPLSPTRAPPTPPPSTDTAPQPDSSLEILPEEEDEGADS
UniProt Q9C0I1: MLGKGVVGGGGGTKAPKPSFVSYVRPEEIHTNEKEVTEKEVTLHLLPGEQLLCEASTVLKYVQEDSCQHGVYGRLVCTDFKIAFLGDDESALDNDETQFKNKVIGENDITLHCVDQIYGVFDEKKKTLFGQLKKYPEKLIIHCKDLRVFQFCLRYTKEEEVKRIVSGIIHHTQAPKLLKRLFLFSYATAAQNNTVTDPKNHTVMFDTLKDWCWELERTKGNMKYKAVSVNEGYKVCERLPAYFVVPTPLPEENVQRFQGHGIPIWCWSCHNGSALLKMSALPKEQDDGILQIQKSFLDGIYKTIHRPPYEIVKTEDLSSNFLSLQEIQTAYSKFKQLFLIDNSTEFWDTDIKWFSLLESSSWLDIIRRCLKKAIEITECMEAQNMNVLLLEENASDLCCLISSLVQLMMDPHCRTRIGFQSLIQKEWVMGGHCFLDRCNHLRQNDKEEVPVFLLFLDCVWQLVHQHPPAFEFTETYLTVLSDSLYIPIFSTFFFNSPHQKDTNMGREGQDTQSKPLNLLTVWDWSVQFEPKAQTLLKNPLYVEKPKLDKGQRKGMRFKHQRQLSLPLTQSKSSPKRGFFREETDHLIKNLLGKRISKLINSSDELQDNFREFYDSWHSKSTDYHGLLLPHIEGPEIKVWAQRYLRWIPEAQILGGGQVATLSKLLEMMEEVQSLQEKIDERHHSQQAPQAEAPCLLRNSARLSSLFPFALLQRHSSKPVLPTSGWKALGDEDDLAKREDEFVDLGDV
UniProt Q9C0D3: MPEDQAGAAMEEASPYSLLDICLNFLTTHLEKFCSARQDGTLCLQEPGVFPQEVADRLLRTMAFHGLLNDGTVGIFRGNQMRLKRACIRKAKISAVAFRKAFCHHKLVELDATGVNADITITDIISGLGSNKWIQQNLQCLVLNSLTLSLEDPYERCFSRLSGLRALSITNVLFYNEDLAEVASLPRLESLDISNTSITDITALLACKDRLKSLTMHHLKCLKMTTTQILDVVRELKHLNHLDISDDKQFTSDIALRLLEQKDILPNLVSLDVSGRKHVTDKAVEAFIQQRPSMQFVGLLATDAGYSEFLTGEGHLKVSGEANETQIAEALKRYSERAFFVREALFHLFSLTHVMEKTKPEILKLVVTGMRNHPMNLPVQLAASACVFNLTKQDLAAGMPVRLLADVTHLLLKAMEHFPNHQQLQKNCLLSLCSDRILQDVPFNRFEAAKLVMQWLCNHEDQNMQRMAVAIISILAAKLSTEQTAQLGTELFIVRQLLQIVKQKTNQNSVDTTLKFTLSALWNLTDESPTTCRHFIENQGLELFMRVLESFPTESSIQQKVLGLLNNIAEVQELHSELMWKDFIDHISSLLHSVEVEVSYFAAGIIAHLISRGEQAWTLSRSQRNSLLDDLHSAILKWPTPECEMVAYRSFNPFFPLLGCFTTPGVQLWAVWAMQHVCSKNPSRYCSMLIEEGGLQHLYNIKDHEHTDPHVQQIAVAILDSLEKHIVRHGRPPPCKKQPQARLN
UniProt Q9H446: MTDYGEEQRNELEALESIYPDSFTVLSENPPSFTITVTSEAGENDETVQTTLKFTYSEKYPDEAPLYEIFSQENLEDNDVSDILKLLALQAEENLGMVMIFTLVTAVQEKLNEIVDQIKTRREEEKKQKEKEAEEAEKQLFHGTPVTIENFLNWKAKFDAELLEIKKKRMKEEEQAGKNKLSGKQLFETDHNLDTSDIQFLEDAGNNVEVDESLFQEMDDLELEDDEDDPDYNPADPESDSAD
UniProt Q9GZR2: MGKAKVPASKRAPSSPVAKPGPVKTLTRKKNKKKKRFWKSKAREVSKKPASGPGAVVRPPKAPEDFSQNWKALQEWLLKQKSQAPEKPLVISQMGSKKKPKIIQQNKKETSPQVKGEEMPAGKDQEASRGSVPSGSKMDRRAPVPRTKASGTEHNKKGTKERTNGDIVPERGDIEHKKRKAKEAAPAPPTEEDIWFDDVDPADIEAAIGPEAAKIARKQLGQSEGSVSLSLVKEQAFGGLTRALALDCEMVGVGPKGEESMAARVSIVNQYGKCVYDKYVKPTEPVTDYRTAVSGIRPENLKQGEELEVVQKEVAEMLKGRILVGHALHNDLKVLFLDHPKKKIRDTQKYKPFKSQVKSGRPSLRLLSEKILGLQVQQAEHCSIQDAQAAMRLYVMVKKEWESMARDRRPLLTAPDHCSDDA
UniProt Q9H6Q4: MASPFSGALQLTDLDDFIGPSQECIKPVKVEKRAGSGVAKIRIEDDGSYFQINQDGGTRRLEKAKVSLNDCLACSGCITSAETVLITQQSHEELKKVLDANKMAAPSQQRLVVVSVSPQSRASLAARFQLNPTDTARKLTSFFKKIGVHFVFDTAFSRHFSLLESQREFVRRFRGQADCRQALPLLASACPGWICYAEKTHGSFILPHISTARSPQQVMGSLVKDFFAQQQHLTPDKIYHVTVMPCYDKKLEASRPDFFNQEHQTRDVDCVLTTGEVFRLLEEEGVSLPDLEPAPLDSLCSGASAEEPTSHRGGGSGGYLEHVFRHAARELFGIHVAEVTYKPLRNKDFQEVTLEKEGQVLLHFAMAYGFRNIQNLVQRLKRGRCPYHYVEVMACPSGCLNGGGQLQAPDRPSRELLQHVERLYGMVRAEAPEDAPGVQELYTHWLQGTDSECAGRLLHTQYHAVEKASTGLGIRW
UniProt Q9HBH5: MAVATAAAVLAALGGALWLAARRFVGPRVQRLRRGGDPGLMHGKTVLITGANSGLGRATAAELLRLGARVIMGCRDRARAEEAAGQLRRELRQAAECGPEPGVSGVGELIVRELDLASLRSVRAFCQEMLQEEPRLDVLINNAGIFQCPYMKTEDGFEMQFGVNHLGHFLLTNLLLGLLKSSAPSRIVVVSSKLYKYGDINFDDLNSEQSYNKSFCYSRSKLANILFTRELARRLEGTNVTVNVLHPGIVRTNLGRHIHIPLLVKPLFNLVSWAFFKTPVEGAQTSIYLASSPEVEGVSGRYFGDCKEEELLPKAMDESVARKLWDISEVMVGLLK
UniProt Q9H8M7: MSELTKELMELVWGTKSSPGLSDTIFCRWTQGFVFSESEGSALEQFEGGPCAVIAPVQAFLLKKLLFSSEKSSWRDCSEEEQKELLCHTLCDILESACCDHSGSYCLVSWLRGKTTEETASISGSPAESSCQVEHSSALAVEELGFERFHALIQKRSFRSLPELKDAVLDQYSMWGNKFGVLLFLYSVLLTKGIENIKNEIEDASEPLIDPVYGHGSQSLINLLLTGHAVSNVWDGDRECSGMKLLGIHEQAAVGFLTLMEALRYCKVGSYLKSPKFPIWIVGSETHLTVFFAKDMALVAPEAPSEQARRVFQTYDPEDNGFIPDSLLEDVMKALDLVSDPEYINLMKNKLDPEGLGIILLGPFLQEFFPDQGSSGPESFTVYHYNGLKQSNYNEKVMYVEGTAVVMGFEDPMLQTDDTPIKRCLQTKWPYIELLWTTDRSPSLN
UniProt Q9H2V7: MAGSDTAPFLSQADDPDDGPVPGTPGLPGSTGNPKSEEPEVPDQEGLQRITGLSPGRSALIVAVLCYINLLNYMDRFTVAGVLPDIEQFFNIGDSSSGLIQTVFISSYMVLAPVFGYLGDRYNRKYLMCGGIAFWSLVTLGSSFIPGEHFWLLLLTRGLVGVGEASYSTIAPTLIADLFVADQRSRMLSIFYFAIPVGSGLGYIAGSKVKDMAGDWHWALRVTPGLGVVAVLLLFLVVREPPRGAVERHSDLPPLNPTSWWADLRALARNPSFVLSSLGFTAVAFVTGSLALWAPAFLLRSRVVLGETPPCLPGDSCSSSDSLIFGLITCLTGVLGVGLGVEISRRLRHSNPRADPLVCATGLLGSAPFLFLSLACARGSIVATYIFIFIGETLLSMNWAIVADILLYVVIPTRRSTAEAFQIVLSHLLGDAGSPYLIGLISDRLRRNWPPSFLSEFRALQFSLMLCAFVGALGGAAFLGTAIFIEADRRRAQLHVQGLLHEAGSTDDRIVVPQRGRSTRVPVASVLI

Compound in the experiment: Nc1ncnc2c1ncn2[C@@H]1O[C@H](COP(=O)(O)OP(=O)(O)NP(=O)(O)O)[C@@H](O)[C@H]1O [adenylyl imidodiphosphate]
Briefly: NP40-soluble protein abundance relative to vehicle (solubility fold change) (ratio); higher = more soluble protein in presence of AMP-PNP. The method, boiled down:
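Jurkat crude lysate prepared with a Dounce homogeniser was treated at eight concentrations spanning 0.1 to 10 mM, 10 min at room temperature then 3 min at 37 °C. Solubilisation with 0.8% NP40 and benzonase and ultracentrifugation preceded TMT labelling of the supernatant for LC-MS/MS. Fold change against the detergent-processed vehicle was determined per replicate from vsn-normalised intensities, across three independent experiments.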

± gives the standard deviation of the averaged measurements. The list shows a part of the results, in another mix than the full data. Most values lie at the level of the controls, where differences are scatter.

Turning to HMG20A (UniProt Q9NP66), the NP40-soluble protein abundance (concentration: 0.1mM) stood at 1.01 ± 0.022 and the NP40-soluble protein abundance (concentration: 0.5mM) was found to be 1.02 ± 0.047.
UniProt Q9H0P0 and related entries: the NP40-soluble protein abundance is, setting by setting: (concentration: 0.1mM) 1 ± 0.018; (concentration: 0.5mM) 0.992 ± 0.033.
With MEGF9 (UniProt Q9H1U4), the NP40-soluble protein abundance reads like this: (concentration: 0.1mM) 1 ± 0.036; (concentration: 0.5mM) 1.06 ± 0.015.
On to RAB18 (UniProt Q9NP72), for which the NP40-soluble protein abundance by setting is: (concentration: 0.1mM) 0.989 ± 0.019; (concentration: 0.5mM) 0.9958 ± 0.0061.
Take CHD8 (UniProt Q9HCK8): the NP40-soluble protein abundance is 1.006 ± 0.0061 (concentration: 0.1mM) and 0.989 ± 0.018 (concentration: 0.5mM).
On to GTPBP4 (UniProt Q9BZE4), for which the NP40-soluble protein abundance amounted to 1.03 ± 0.018 (concentration: 0.1mM) and 1.02 ± 0.048 (concentration: 0.5mM).
For UBA5 (UniProt Q9GZZ9), the NP40-soluble protein abundance reads like this: (concentration: 0.1mM) 0.99 ± 0.017; (concentration: 0.5mM) 1 ± 0.018.
For UniProt Q9NPJ3 the same measures were 0.98 ± 0.03 and 0.978 ± 0.021.
For UniProt Q9GZN8 and related entries, the NP40-soluble protein abundance is, setting by setting: (concentration: 0.1mM) 1 ± 0.038; (concentration: 0.5mM) 0.99 ± 0.043.
SENP3 (UniProt Q9H4L4): the NP40-soluble protein abundance reads like this: (concentration: 0.1mM) 1.01 ± 0.028; (concentration: 0.5mM) 0.991 ± 0.052.
MTIF3 (UniProt Q9H2K0): the NP40-soluble protein abundance reads like this: (concentration: 0.1mM) 0.9908 ± 0.0062; (concentration: 0.5mM) 0.995 ± 0.017.
UniProt Q9HA65 and related entries: the NP40-soluble protein abundance runs as follows: (concentration: 0.1mM) 1.07 ± 0.02; (concentration: 0.5mM) 1.08 ± 0.083.
For UPF2 (UniProt Q9HAU5), the NP40-soluble protein abundance is, setting by setting: (concentration: 0.1mM) 0.9796 ± 0.0083; (concentration: 0.5mM) 1 ± 0.029.
In the case of UniProt Q9C0I1 and related entries, the NP40-soluble protein abundance runs as follows: (concentration: 0.1mM) 0.958 ± 0.024; (concentration: 0.5mM) 0.989 ± 0.025.
Consider UniProt Q9C0D3 and related entries, for which the NP40-soluble protein abundance is, setting by setting: (concentration: 0.1mM) 1.04 ± 0.046; (concentration: 0.5mM) 0.996 ± 0.05.
For UniProt Q9H446 and related entries the same measures were 0.957 ± 0.017 and 1 ± 0.042.
In the case of REXO4 (UniProt Q9GZR2), the NP40-soluble protein abundance is, setting by setting: (concentration: 0.1mM) 1 ± 0.029; (concentration: 0.5mM) 1.05 ± 0.048.
For UniProt Q9H6Q4, in that order: 1.02 ± 0.025 and 0.987 ± 0.01.
Consider RDH14 (UniProt Q9HBH5), for which the NP40-soluble protein abundance by setting is: (concentration: 0.1mM) 1.04 ± 0.042; (concentration: 0.5mM) 1.01 ± 0.0037.
For the target UniProt Q9H6A9 and related entries, the NP40-soluble protein abundance was determined as 0.986 ± 0.032 (concentration: 0.1mM) and 1.01 ± 0.046 (concentration: 0.5mM).
As to JPH1 (UniProt Q9HDC5), the NP40-soluble protein abundance by setting is: (concentration: 0.1mM) 0.997 ± 0.033; (concentration: 0.5mM) 0.996 ± 0.041.
As for UniProt Q9H8M7, the NP40-soluble protein abundance was 0.984 ± 0.031 (concentration: 0.1mM) and 1.01 ± 0.051 (concentration: 0.5mM).
For UniProt Q9H2V7 and related entries, the NP40-soluble protein abundance amounted to 0.988 ± 0.016 (concentration: 0.1mM) and 1 ± 0.032 (concentration: 0.5mM).
